Measured values published in US20220056134A1 (Genentech, published 2022).
Results are given in words; binding and its absence hold for the method and conditions named. Some entries that bind do so weakly or less than the wild type.

Sequences of proteins named here, by UniProt entry; tags and fusion partners are left off. Residues count along the entry.
UniProt P35225, residues 35-146: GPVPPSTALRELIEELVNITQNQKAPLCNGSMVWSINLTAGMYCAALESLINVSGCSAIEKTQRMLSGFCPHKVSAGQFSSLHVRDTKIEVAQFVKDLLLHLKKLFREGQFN

Target: IL-13 (in-house) (UniProt P35225)
Assay: SPR

Row | Binder | binding
1 | anti-IL-13 Fab variant CDR H3 D95A (Fab, name in Kabat numbering, V domains shown, Fab; variable domains only; Kabat numbering) VH: EVTLRESGPALVKPTQTLTLTCTVSGFSLSAYSVNWIRQPPGKALEWLAMIWGDGKIVYNSALKSRLTISKDTSKNQVVLTMTNMDPVDTATYYCAGAGYYPYAMDNWGQGSLVTVSS VL: DIVLTQSPDSLSVSLGERATINCRASKSVDSYGNSFMHWYQQKPGQPPKLLIYLASNLESGVPDRFSGSGSGTDFTLTISSLQAEDVAVYYCQQNNEDPRTFGGGTKVEIK | binds
2 | anti-IL-13 Fab variant CDR H3 P99A (Fab, name in Kabat numbering, V domains shown, Fab; variable domains only; Kabat numbering) VH: EVTLRESGPALVKPTQTLTLTCTVSGFSLSAYSVNWIRQPPGKALEWLAMIWGDGKIVYNSALKSRLTISKDTSKNQVVLTMTNMDPVDTATYYCAGDGYYAYAMDNWGQGSLVTVSS VL: DIVLTQSPDSLSVSLGERATINCRASKSVDSYGNSFMHWYQQKPGQPPKLLIYLASNLESGVPDRFSGSGSGTDFTLTISSLQAEDVAVYYCQQNNEDPRTFGGGTKVEIK | binds
